Assay results from publication PMC2776832.
These are yes or no findings as the source states them, for the method shown. Some binding calls cover weakened binding; strength is not graded here.

The chains behind the UniProt entries cited, without tags or fusion partners. Where a name states a change or a piece, a line headed by the entry shows the natural chain unless it says otherwise. Residues count along the entry.
UniProt P22646, residues 22-189: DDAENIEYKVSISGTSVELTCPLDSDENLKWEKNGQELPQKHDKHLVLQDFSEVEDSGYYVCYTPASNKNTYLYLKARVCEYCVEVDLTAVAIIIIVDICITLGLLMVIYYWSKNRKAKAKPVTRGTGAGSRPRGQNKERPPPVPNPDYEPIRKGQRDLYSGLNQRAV

Target: T1, CD3γ (mouse (endogenous in mouse T cells)) (UniProt P11942)
T1 sequence: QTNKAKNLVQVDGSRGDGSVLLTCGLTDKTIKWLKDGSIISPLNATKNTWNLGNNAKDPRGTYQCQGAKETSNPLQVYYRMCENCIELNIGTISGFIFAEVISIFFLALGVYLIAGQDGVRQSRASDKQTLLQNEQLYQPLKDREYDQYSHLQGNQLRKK
Assay: flow cytometry on cells; total CD4+ or CD8+ T cells from spleen and lymph nodes stained with mAb 7D6, specific for the associated CD3γ/ε heterodimer; both partners on the same cell; staining as percent of tgε^WT

binding: binds
Substance: non-mutated murine CD3ε with c-Myc and flash tags (ε^WT) (from UniProt P22646 22-189)
